Assay results published in the M2OR odorant receptor database.
Only a part is listed here, and it is no random draw. Calls are pooled over several reports, among them a noisy single-well screen. This is one part of the list.

Assays:
Conditions in all cases: stereoisomer not certain
OR5M11 (Homo sapiens) = biological target: T1, OR5M11 (Homo sapiens) (UniProt Q96RB7)
T1 sequence (whole entry): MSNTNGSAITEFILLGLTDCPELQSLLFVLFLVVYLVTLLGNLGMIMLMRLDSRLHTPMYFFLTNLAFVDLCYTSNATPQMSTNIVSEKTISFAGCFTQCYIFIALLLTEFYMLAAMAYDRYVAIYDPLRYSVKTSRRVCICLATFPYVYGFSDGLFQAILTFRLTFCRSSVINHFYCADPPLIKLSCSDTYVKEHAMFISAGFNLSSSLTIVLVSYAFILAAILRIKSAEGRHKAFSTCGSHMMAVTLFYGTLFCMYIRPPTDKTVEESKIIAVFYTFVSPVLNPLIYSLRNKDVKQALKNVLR
In short: (§1)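 Assay methods differ from source to source, frequently being transient luciferase assays in mammalian cell lines. For each receptor–molecule pair, the label responsive (active) applies when the original authors judged the measured signal statistically different from baseline, and non-responsive (inactive) applies otherwise.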

OR5M1 = system: T2, OR5M1
T2 sequence (whole entry): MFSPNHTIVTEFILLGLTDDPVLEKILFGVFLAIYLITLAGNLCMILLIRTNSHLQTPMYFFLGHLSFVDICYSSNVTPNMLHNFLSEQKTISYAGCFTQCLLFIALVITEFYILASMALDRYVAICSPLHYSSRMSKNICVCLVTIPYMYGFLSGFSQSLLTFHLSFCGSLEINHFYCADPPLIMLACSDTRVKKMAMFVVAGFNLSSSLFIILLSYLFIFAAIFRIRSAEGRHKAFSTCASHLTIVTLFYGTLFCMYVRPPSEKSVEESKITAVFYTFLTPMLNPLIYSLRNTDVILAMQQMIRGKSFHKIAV
In short: as §1

OR5M8 (Homo sapiens) = biological target: T3, OR5M8 (Homo sapiens) (UniProt Q8NGP6)
T3 sequence (whole entry): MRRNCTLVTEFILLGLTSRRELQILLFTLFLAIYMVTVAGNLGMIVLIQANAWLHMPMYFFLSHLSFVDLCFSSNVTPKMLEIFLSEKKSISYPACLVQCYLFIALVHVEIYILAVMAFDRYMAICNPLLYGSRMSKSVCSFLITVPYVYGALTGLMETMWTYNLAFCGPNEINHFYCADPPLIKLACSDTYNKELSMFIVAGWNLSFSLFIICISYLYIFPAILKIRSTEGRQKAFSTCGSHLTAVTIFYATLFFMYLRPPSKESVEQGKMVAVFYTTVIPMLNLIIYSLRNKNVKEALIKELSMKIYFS
In short: as §1

OR5M9 (Homo sapiens) = biological target: T4, OR5M9 (Homo sapiens) (UniProt Q8NGP3)
T4 sequence (whole entry): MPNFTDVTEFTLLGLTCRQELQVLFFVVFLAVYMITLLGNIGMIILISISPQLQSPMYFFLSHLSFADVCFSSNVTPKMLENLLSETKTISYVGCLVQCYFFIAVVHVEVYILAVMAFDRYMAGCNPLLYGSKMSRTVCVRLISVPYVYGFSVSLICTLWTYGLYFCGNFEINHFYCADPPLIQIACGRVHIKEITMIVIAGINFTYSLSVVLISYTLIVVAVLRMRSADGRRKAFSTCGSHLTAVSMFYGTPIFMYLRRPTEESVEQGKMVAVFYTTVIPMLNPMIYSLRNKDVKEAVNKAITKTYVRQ
In short: as §1

OR5MA = system: T5, OR5MA
T5 sequence (whole entry): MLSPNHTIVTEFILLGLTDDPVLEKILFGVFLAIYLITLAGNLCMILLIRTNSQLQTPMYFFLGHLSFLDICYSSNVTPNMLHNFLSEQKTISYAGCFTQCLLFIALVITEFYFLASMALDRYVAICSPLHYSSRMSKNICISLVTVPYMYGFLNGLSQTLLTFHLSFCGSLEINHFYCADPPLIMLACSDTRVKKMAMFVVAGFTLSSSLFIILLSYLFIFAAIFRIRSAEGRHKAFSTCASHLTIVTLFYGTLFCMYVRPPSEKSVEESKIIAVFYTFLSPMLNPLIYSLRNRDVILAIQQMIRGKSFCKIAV
In short: as §1

OR5P2 (Homo sapiens) = biological target: T6, OR5P2 (Homo sapiens) (UniProt Q8WZ92)
T6 sequence (whole entry): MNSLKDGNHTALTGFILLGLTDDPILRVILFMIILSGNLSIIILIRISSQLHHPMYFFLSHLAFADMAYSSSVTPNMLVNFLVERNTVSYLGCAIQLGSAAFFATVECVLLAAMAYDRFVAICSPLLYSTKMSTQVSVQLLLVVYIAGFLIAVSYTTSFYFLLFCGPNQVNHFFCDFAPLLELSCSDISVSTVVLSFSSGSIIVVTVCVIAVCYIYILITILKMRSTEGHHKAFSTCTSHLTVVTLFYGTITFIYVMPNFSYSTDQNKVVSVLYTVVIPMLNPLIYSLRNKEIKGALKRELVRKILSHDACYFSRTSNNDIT
In short: as §1

OR5P3 (Homo sapiens) = biological target: T7, OR5P3 (Homo sapiens) (UniProt Q8WZ94)
T7 sequence (whole entry): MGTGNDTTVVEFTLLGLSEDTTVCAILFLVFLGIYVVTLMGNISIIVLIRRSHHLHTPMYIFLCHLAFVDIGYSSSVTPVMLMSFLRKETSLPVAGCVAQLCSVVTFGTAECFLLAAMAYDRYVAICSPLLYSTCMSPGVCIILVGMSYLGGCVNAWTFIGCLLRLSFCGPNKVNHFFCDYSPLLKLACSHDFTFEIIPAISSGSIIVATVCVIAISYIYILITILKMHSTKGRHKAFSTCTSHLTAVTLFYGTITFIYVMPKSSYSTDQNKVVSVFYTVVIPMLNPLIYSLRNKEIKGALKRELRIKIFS
In short: as §1

OR5R1 = system: T8, OR5R1
T8 sequence (whole entry): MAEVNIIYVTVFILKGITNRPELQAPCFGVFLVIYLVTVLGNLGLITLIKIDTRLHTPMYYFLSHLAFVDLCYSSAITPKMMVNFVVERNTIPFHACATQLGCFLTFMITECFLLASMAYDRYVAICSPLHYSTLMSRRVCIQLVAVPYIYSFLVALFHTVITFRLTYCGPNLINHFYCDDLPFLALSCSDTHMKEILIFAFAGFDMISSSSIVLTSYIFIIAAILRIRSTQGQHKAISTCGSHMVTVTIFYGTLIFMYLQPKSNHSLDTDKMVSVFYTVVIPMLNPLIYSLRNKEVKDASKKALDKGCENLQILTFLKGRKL
In short: as §1

OR5T1 (Homo sapiens) = biological target: T9, OR5T1 (Homo sapiens) (UniProt Q8NG75)
T9 sequence (whole entry): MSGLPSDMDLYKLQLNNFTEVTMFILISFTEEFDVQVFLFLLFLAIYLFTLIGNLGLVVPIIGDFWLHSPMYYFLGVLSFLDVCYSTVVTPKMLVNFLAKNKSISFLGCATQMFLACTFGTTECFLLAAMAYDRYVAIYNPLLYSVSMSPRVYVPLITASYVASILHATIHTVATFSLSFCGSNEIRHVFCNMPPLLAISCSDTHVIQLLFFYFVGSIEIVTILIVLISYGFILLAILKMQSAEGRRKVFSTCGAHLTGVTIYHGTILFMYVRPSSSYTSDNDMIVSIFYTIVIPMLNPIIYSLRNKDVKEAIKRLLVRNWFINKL
In short: as §1

OR5T1 = system: T10, OR5T1
T10 sequence (whole entry): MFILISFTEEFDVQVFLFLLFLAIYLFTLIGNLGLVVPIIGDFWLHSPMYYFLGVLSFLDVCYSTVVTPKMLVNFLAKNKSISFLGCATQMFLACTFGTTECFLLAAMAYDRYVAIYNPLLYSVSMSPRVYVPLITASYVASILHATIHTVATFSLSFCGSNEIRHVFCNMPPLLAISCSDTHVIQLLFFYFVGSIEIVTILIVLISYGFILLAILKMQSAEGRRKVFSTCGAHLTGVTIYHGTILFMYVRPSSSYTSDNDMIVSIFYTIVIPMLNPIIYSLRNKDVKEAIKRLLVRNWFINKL
In short: as §1

OR5T2 [1] = system: T11, OR5T2
T11 sequence (whole entry): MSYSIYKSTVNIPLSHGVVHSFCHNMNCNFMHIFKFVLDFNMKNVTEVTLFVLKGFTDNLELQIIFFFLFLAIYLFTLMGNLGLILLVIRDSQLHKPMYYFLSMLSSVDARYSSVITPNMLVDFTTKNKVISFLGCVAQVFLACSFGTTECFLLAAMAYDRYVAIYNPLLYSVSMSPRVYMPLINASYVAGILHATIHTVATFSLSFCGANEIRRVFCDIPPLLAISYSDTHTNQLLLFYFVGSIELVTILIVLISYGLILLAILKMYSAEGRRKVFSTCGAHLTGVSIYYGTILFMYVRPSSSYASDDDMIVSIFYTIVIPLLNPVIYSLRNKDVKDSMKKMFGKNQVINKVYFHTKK
In short: as §1

OR5T2 [2] = system: T12, OR5T2; remark: listed apart in the source
T12 sequence (whole entry): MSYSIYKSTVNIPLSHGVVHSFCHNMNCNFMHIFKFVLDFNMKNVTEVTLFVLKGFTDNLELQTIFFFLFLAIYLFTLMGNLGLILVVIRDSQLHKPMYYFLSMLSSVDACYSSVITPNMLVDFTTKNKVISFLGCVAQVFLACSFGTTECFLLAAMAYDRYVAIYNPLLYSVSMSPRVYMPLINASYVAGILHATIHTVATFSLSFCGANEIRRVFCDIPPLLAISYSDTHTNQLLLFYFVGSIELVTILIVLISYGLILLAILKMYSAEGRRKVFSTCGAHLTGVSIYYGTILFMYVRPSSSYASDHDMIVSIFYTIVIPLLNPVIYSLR
In short: as §1

OR5T3 = system: T13, OR5T3
T13 sequence (whole entry): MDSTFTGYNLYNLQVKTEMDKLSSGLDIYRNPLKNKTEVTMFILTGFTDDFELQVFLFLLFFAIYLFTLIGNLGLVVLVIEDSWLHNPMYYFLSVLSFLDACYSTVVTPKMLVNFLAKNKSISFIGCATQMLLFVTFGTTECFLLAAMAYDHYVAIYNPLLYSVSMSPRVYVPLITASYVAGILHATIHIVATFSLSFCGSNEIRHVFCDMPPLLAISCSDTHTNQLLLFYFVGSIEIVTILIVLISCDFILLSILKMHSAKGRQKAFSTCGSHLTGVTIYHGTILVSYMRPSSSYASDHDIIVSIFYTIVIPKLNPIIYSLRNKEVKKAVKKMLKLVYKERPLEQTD
In short: as §1

OR5V1 (Homo sapiens) = biological target: T14, OR5V1 (Homo sapiens) (UniProt Q9UGF6)
T14 sequence (whole entry): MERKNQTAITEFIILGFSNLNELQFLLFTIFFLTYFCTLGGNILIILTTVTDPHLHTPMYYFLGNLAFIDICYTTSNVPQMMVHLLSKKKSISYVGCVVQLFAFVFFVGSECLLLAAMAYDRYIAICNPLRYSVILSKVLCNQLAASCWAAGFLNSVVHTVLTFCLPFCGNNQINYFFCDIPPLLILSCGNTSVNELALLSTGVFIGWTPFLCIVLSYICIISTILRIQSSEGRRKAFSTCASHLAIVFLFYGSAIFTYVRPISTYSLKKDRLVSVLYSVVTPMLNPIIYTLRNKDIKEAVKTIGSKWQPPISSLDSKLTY
In short: as §1

OR5W2 = system: T15, OR5W2
T15 sequence (whole entry): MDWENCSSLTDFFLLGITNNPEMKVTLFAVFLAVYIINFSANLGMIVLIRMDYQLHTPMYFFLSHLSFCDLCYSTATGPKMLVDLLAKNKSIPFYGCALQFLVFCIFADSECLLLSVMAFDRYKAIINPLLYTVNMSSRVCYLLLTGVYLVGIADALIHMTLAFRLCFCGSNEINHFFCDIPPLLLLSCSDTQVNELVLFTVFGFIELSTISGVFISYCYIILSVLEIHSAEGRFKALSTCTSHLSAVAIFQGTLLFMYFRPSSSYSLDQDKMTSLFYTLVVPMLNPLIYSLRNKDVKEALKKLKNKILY
In short: as §1

OR6A2 (Homo sapiens) = biological target: T16, OR6A2 (Homo sapiens) (UniProt O95222)
T16 sequence (whole entry): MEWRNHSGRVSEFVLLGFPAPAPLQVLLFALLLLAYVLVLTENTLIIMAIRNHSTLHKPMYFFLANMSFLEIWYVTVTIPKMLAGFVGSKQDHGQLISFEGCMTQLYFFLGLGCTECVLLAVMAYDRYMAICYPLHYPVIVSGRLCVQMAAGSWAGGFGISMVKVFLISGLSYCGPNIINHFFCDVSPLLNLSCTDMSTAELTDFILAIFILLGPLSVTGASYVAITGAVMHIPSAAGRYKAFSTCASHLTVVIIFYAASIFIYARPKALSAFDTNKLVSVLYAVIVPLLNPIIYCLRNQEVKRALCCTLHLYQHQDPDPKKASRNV
In short: as §1

Structure (SMILES) | odorant receptor agonist call (OR5M11 (Homo sapiens)) | odorant receptor agonist call (OR5M1) | odorant receptor agonist call (OR5M8 (Homo sapiens)) | odorant receptor agonist call (OR5M9 (Homo sapiens)) | odorant receptor agonist call (OR5MA) | odorant receptor agonist call (OR5P2 (Homo sapiens)) | odorant receptor agonist call (OR5P3 (Homo sapiens)) | odorant receptor agonist call (OR5R1) | odorant receptor agonist call (OR5T1 (Homo sapiens)) | odorant receptor agonist call (OR5T1) | odorant receptor agonist call (OR5T2 [1]) | odorant receptor agonist call (OR5T2 [2]) | odorant receptor agonist call (OR5T3) | odorant receptor agonist call (OR5V1 (Homo sapiens)) | odorant receptor agonist call (OR5W2) | odorant receptor agonist call (OR6A2 (Homo sapiens))
CC(=O)OC(C)(C)C1CC=C(C)CC1 (stereo not given) | inactive | inactive | inactive | inactive | inactive | inactive | inactive | inactive | inactive | inactive | inactive | inactive | inactive | inactive | inactive | inactive
CC1=NC(C)SC1C (stereo not given) | – | inactive | inactive | inactive | – | inactive | inactive | inactive | inactive | inactive | inactive | inactive | inactive | active | inactive | inactive
